Values from PubChem BioAssay AID504793 (Drosophila RNAi Screening Center, 2011)
Purpose: 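Genes required for cells to halt at G2/M after double-strand DNA breaks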 (primary screen). Cell system: Drosophila S2R+ cells. Knock-down reagent: long dsRNA against Drosophila genes, about 0.25 µg dsRNA per well. Duration: 4 days of dsRNA, then 4 hours of drug before read-out. Challenge: doxorubicin 0.5 µM for 4 hours to cause double-strand breaks, in cells also given a low, harmless dose of dsRNA against nbs to sensitise the assay. Measured: 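Mitotic index as the number of phospho-histone H3-positive cells in each well following doxorubicin, given as raw counts without normalisation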. Direction: mitotic cells: higher = more cells in mitosis, weaker G2 arrest. Call rule: 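a call needs confirmation in secondary tests, with other dsRNAs and a check of mitotic timing without damage, not just a high primary count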. Calls: active = confirmed in follow-up tests; inactive = not confirmed.
In all, the deposit lists about 23,000 reagents; below is a random part of those with a known target gene and a result. Over the whole deposit, 62 (0.27%) were called active. 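Calls come from follow-up tests whose scores are not deposited, so confirmed genes may have low counts here; counts are not normalised per plate.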 The raw values are shown without normalisation. Unmarked entries are inactive. A plus sign joins genes that one reagent is predicted to hit.

| gene | dsRNA | mitotic cells, replicate 1 | mitotic cells, replicate 2 |
| --- | --- | --- | --- |
| CNT1 + CG13742 | DRSC06413 | 5 | – |
| CNT1 + CG13742 | DRSC28676 | 4 | – |
| Fst (Frost) | DRSC16491 | 3 | – |
| Fst (Frost) | DRSC24483 | 4 | – |
| PyK (Pyruvate kinase) | DRSC16806 | 10 | – |
| PyK (Pyruvate kinase) | DRSC27033 | 7 | – |
| CG13154 | DRSC06279 | 4 | – |
| Pex14 (Peroxin 14) | DRSC11754 | 4 | – |
| Pex14 (Peroxin 14) | DRSC28339 | 4 | – |
| Cf2 (Chorion factor 2) | DRSC23015 | 10 | – |
| Cf2 (Chorion factor 2) | DRSC28177 | 5 | – |
| CG13590 | DRSC04226 | 9 | – |
| CG13590 | DRSC29790 | 9 | – |
| CG8788 | DRSC07267 | 6 | – |
| CG12729 | DRSC17884 | 9 | – |
| CG12729 | DRSC27092 | 6 | – |
| Appl (beta amyloid protein precursor-like) | DRSC17728 | 5 | – |
| Appl (beta amyloid protein precursor-like) | DRSC27476 | 9 | – |
| CG6041 | DRSC18396 | 12 | – |
| CG6041 | DRSC24234 | 14 | – |
| Alr (Augmenter of liver regeneration) | DRSC19469 | 6 | – |
| CG8157 | DRSC07085 | 5 | – |
| CG8157 | DRSC21595 | 12 | – |
| CG8157 | DRSC25401 | 5 | – |
| Usp16-45 (Ubiquitin specific protease 16/45) | DRSC18352 | 6 | – |
| Usp16-45 (Ubiquitin specific protease 16/45) | DRSC26519 | 2 | – |
| Usp5 (Ubiquitin specific protease 5) | DRSC08244 | 2 | – |
| Usp5 (Ubiquitin specific protease 5) | DRSC28531 | 4 | – |
| spen (split ends) | DRSC00839 | 2 | – |
| spen (split ends) | DRSC37650 | 6 | – |
| slbo (slow border cells) | DRSC04716 | 14 | – |
| slbo (slow border cells) | DRSC27813 | 11 | – |
| CG10163 | DRSC09710 | 2 | – |
| Muc30E (Mucin 30E) | DRSC01101 | 8 | 11 |
| Muc30E (Mucin 30E) | DRSC28881 | 5 | – |
| CG34393 | DRSC00419 | 4 | – |
| CG34393 | DRSC00710 | 3 | – |
| CG34393 | DRSC24621 | 5 | – |
| CG34393 | DRSC26763 | 7 | – |
| p120ctn (p120 catenin) | DRSC07753 | 3 | – |
| CG10073 | DRSC05961 | 8 | – |
| SsRbeta (Signal sequence receptor beta) | DRSC11290 | 11 | – |
| CR12628 + Mgstl | DRSC03702 | 4 | 16 |
| CR12628 + Mgstl | DRSC20568 | 4 | – |
| Sbat (Sabbat) | DRSC00160 | 4 | – |
| CstF64 (Cleavage stimulation factor 64 kD subunit) | DRSC16616 | 9 | – |
| CstF64 (Cleavage stimulation factor 64 kD subunit) | DRSC29486 | 10 | – |

13 neighbouring records already listed, for reference:
| gene | dsRNA | mitotic cells, replicate 1 | mitotic cells, replicate 2 |
| --- | --- | --- | --- |
| CNT1 + CG13742 | DRSC06413 | 5 | – |
| CNT1 + CG13742 | DRSC28676 | 4 | – |
| Fst (Frost) | DRSC16491 | 3 | – |
| Fst (Frost) | DRSC24483 | 4 | – |
| PyK (Pyruvate kinase) | DRSC16806 | 10 | – |
| PyK (Pyruvate kinase) | DRSC27033 | 7 | – |
| CG13154 | DRSC06279 | 4 | – |
| Pex14 (Peroxin 14) | DRSC11754 | 4 | – |
| Pex14 (Peroxin 14) | DRSC28339 | 4 | – |
| Cf2 (Chorion factor 2) | DRSC23015 | 10 | – |
| Cf2 (Chorion factor 2) | DRSC28177 | 5 | – |
| CG13590 | DRSC04226 | 9 | – |
| CG13590 | DRSC29790 | 9 | – |

Additional entries follow.
| gene | dsRNA | mitotic cells, replicate 1 | mitotic cells, replicate 2 |
| --- | --- | --- | --- |
| Rab3-GEF (Rab3 GDP-GTP exchange factor) | DRSC19954 | 7 | – |
| Rab3-GEF (Rab3 GDP-GTP exchange factor) | DRSC19955 | 12 | – |
| Rab3-GEF (Rab3 GDP-GTP exchange factor) | DRSC27720 | 4 | – |
| Alk (Anaplastic lymphoma kinase) | DRSC05918 | 8 | – |
| Alk (Anaplastic lymphoma kinase) | DRSC23342 | 7 | – |
| Lamtor3 (Late endosomal/lysosomal adaptor, MAPK and MTOR activator 3) | DRSC02815 | 8 | – |
| prod (proliferation disrupter) | DRSC07667 | 5 | – |
| prod (proliferation disrupter) | DRSC25498 | 6 | – |
| Rnf11 (Ring finger protein 11) | DRSC21574 | 6 | – |
| Rnf11 (Ring finger protein 11) | DRSC27053 | 10 | – |
| alpha-Est5 (alpha-Esterase-5) | DRSC12617 | 4 | – |
| Ate1 (Arginyltransferase 1) | DRSC05925 | 9 | – |
| Ate1 (Arginyltransferase 1) | DRSC24725 | 7 | – |
| CG32655 | DRSC18925 | 9 | – |
| lz (lozenge) | DRSC18790 | 8 | – |
| lz (lozenge) | DRSC22302 | 7 | – |
| lz (lozenge) | DRSC25157 | 9 | – |
| CG5966 | DRSC18394 | 6 | – |
| side-V (sidestep V) | DRSC04189 | 15 | – |
| CG7907 | DRSC16339 | 18 | – |
| CG7907 | DRSC26041 | 4 | – |
| ph-d (polyhomeotic distal) | DRSC23191 | 14 | – |
| ph-d (polyhomeotic distal) | DRSC29736 | 6 | – |
| Rilpl (Rab interacting lysosomal protein like) | DRSC18494 | 6 | – |
| bab2 (bric a brac 2) | DRSC08150 | 5 | – |
| bab2 (bric a brac 2) | DRSC26326 | 10 | – |
| Fam92 | DRSC02952 | 3 | – |
| Fam92 | DRSC29237 | 4 | – |
